Results are given in words; binding and its absence hold for the method and conditions named. Binding seen in cells or lysates may run through a third protein. Some entries that bind do so weakly or less than the wild type. For some of these results: Tags and fused reporters may be left off the sequences shown.
Tests used:
ECFP-Bax (mouse) = ECFP-Bax (mouse) (UniProt Q07813); test: FRET or BRET; flow cytometry-based FRET in living NIH3T3/puro, NIH3T3/vMAP and NIH3T3/vMAPΔ20 cells 36 h after transfection with pEYFP and pECFP fusions
[1] = target: T1, HA-Bad (in NIH3T3) (mouse) (UniProt Q61337); test: co-IP; NIH3T3/puro, NIH3T3/vMAP, NIH3T3/vMAPΔ20 or NIH3T3/vMAP L/A stable cells transfected with an HA-tagged and a Flag-tagged protein; whole cell lysates, IP anti-HA, immunoblot anti-Flag; anti-Myc IP as negative control
T1 sequence: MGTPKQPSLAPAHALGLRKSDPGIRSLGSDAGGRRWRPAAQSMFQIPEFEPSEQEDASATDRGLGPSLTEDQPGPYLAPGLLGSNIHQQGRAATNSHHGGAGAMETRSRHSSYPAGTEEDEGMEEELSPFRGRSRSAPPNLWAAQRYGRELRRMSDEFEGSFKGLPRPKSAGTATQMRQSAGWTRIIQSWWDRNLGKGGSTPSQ

Sequences of proteins named here, by UniProt entry; tags and fusion partners are left off.
UniProt Q07813: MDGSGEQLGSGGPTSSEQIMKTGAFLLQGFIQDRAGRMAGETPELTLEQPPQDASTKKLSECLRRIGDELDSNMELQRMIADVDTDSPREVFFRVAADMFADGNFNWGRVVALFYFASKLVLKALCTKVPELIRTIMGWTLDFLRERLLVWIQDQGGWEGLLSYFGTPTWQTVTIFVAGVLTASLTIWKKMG

[2] = target: HA-Bax (in NIH3T3) (mouse) (UniProt Q07813); test: as above

binding (ECFP-Bax (mouse)) | binding [1] | binding [2] | Substance
binds | – | – | EYFP-Bcl-2 (from UniProt P10415-1 1-239)
– | binds | binds | Flag-Bcl-2 (from UniProt P10415-1 1-239)
– | binds | – | Flag-Bcl-xL (from UniProt Q07817-1 1-233)

From publication PMC2134948
